These results are taken from patent publication US7473704B2, “Cyclohexyl prostaglandin analogs as EP4-receptor agonists” (Allergan, Inc., priority 2003, dated 2009).

The chains behind the UniProt entries cited, without tags or fusion partners.
UniProt P35408, whole entry: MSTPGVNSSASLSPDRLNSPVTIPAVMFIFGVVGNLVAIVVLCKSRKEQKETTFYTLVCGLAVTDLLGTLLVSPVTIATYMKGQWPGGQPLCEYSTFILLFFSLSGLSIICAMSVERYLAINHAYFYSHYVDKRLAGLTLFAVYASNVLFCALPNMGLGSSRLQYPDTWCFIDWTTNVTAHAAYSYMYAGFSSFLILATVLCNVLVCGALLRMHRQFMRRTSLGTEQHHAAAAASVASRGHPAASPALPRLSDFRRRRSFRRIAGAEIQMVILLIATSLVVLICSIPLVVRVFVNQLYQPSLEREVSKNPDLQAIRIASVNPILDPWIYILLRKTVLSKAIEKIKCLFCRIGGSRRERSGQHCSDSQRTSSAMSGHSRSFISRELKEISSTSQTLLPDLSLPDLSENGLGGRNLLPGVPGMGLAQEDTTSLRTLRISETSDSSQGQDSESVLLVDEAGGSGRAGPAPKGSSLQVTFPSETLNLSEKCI

The structures given here were assigned with low confidence; some may be wrong.

Experiment [1] has as its target T1, human EP4 receptor (Homo sapiens, UniProt P35408). Briefly: Recombinant human EP4 receptor binding assay (HEK-293-EBNA stable transfectants). To be noted: read-out: Binding Data (IC50 in nM) hEP4. As to the method:
(§1) Human Recombinant EP4 Receptor: Stable Transfectants.
(§2) Plasmids encoding the human EP4 receptor were prepared by cloning the respective coding sequences into the eukaryotic expression vector pCEP4 (Invitrogen). The pCEP4 vector contains an Epstein Barr virus (EBV) origin of replication, which permits episomal replication in primate cell lines expressing EBV nuclear antigen (EBNA-1). It also contains a hygromycin resistance gene that is used for eukaryotic selection. The cells employed for stable transfection were human embryonic kidney cells (HEK-293) that were transfected with and express the EBNA-1 protein. These HEK-293-EBNA cells (Invitrogen) were grown in medium containing Geneticin (G418) to maintain expression of the EBNA-1 protein. HEK-293 cells were grown in DMEM with 10% fetal bovine serum (FBS), 250 μg ml^−1 G418 (Life Technologies) and 200 μg ml^−1 gentamicin or penicillin/streptomycin.
(§3) For transfection, the cells were grown to 50-60% confluency on 10 cm plates. The plasmid pCEP4 incorporating cDNA inserts for the respective human prostanoid receptor (20 μg) was added to 500 μl of 250 mM CaCl2. HEPES buffered saline×2 (2×HBS, 280 mM NaCl, 20 mM HEPES acid, 1.5 mM Na2 HPO4, pH 7.05-7.12) was then added dropwise to a total of 500 μl, with continuous vortexing at room temperature. After 30 min, 9 ml DMEM were added to the mixture. […]

The target of experiment [2] is T1, human EP4 receptor. Kind of experiment: Recombinant human EP4 receptor functional assay (HEK-293-EBNA stable transfectants). The conditions noted are these: read-out: Functional Data (EC50 in nM) hEP4. Here is the method:
as §1, §2, §3

With `O=C(O)CCC/C=C\C[C@H]1C(=O)C[C@@H](O)C[C@@H]1/C=C/C(O)Cc1ccccc1` (single isomer, unassigned), the 50% inhibitory concentration (IC50) – broadly, the concentration at which inhibition is half-maximal – at human EP4 receptor [1] stood at 500 nM. Further, on human EP4 receptor [2], the 50% effective concentration (EC50) (commonly the concentration needed to bring the measured effect to its halfway point) turned out to be 251 nM.
